From US5538960A, “Hydrazono-5β, 14β-androstane derivatives active on the cardiovascular system, and pharmaceutical compositions containing same” (SIGMA-TAU Industrie Farmaceutiche Riunite S.p.A., priority 1992, dated 1996)
At least one read-out could not be matched to a standard name with certainty.

Target: T1, Na^+,K+ -ATPase (Canis lupus familiaris, UniProt P50997)
T1 construct: Na^+,K+ -ATPase receptor purified according to Jorghensen; from tissue
Experiment: displacement of the specific ^3 H-ouabain binding from the Na^+,K+ -ATPase receptor
Conditions: purified Na^+,K+ -ATPase receptor
Description: To test the affinity for the receptor site of the Na^+,K+ -ATPase and the agonist or antagonist activity on the enzyme, the following tests were used:
a) displacement of the specific ^3 H-ouabain binding from the Na^+,K+ -ATPase receptor purified according to Jorghensen (Jorghensen P., BBA, 1974, 356, 36) and Erdmann (Erdmann E. et al., Arzneim. Forsh., 1984, 34, 1314);

| Compound | Binding ^3 H-Ouab. Displacement log IC50 |
| --- | --- |
| CN(C)/N=C/[C@H]1CC[C@]2(O)[C@@H]3CC[C@@H]4C[C@@H](O)CC[C@]4(C)[C@H]3CC[C@]12C [Comp. I-ai, (E)-17β-Dimethylhydrazonomethyl-5β-androstane-3β,14β-diol] | 5.0 |
| C[C@]12CC[C@H](O)C[C@H]1CC[C@@H]1[C@@H]2CC[C@]2(C)[C@@H](/C=N/NC(N)=S)CC[C@]12O [Comp. I-aj, (E)-17β-Thiosemicarbazonomethyl-5β-androstane-3β,14β-diol] | 5.0 |
| C[C@]12CC[C@H](O)C[C@H]1CC[C@@H]1[C@@H]2CC[C@]2(C)[C@@H](/C=N/NC3=NCC(=O)N3)CC[C@]12O [Comp. I-ad, (E)-17β-(5-Oxo-2-imidazolin-2-yl)hydrazonomethyl-5β-androstane-3β,14β-diol] | 5.0 |
